No constants are given. Whether binding was seen depends on the method and setting. Binding seen in cells or lysates may run through a third protein. Some results given as binding are weak or reduced against the parent protein; the word gives no strength.

By UniProt entry, the sequences of proteins in these tests, tags left out.
UniProt P45983: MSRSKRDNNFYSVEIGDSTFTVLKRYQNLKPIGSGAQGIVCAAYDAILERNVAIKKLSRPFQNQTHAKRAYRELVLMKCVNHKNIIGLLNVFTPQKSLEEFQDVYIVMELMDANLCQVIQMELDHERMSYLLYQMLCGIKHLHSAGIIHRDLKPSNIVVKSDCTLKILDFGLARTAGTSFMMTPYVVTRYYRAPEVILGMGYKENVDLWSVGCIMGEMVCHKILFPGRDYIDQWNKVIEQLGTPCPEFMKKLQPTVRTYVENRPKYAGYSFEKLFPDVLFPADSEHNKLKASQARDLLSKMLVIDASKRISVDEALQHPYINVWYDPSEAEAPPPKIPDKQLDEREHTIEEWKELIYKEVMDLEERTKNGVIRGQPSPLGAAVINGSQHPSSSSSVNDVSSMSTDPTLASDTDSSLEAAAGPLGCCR
UniProt Q91Y86: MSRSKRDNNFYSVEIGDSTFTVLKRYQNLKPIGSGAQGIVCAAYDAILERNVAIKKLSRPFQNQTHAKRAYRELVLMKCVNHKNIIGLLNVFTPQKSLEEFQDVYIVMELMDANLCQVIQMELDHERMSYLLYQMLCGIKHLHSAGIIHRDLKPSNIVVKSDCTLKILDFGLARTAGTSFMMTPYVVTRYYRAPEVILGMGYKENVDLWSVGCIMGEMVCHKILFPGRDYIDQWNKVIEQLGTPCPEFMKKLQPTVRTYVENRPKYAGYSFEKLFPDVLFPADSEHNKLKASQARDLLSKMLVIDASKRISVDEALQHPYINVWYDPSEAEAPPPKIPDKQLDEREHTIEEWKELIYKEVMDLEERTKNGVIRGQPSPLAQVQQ

In test [1] the target is Flag-JNK1 (c-Jun N-terminal kinase 1) (UniProt P45983). The test is described as follows: co-IP; HEK 293T cells co-transfected with HA-FAF1 and Flag-JNK1, untreated or oxygen glucose deprivation for 30 min; whole cell lysates immunoprecipitated with anti-Flag antibody, immunoblot.
Test [2] has as its target endogenous JNK1 of Faf1+/+ mouse embryonic fibroblasts (mouse (endogenous in MEFs)) (UniProt Q91Y86). Description: condition: only 2 h after oxygen glucose deprivation; co-IP; endogenous proteins; Faf1+/+ MEFs 2 h after oxygen glucose deprivation; lysates immunoprecipitated with anti-JNK1 antibody, immunoblot. On the technique in general: Immunoblotting shows a protein as a band on a membrane.

Test [3] shares this target. The test is described as follows: co-IP; endogenous proteins; Faf1+/+ MEFs treated with oxygen glucose deprivation for the indicated times; lysates immunoprecipitated with anti-JNK1 antibody, immunoblot.
The target in test [4] is endogenous JNK1 of RGC5 cells (not stated (endogenous in RGC5 cells)) (UniProt Q91Y86). The test is described as follows: co-IP; endogenous proteins; RGC5 cells treated with oxygen glucose deprivation for the indicated times; whole cell lysates immunoprecipitated with anti-JNK1 antibody, immunoblot.

Regarding “HA-FAF1 (Fas-associated factor 1) (from UniProt Q9UNN5 1-650)”, in test [1], the binding result is “binds”.

B1: endogenous FAF1 of Faf1+/+ mouse embryonic fibroblasts (protein, UniProt P54731 1-649)
chain: MASNMDREMILADFQACTGIENIDEAITLLEQNNWDLVAAINGVIPQENGILQSDFGGETMPGPTFDPASHPAPASTPSSSAFRPVMPSRQIVERQPRMLDFRVEYRDRNVDVVLEDSCTVGEIKQILENELQIPVPKMLLKGWKTGDVEDSTVLKSLHLPKNNSLYVLTPDLPPPSSSSHAGALQESLNQNFMLIITHREVQREYNLNFSGSSTVQEVKRNVYDLTSIPVRHQLWEGWPASATDDSMCLAESGLSYPCHRLTVGRRTSPVQTREQSEEQSTDVHMVSDSDGDDFEDASEFGVDDGEVFGMASSTLRKSPMMPENAENEGDALLQFTAEFSSRYGDCHPVFFIGSLEAAFQEAFYVKARDRKLLAIYLHHDESVLTNVFCSQMLCAESIVSYLSQNFITWAWDLTKDTNRARFLTMCNRHFGSVIAQTIRTQKTDQFPLFLIIMGKRSSNEVLNVIQGNTTVDELMMRLMAAMEIFSAQQQEDIKDEDEREARENVKREQDEAYRLSLEADRAKREAHEREMAEQFRLEQIRKEQEEEREAIRLSLEQALPPEPKEENAEPVSKLRIRTPSGEFLERRFLASNKLQIVFDFVASKGFPWDEFKLLSTFPRRDVTQLDPNKSLLEVNLFPQETLFLQAKE
Regarding B1, the binding entry in test [2] was “no binding”; in test [3], “binds”.

B2: endogenous FAF1 of RGC5 cells (protein, UniProt P54731 1-649)
chain: MASNMDREMILADFQACTGIENIDEAITLLEQNNWDLVAAINGVIPQENGILQSDFGGETMPGPTFDPASHPAPASTPSSSAFRPVMPSRQIVERQPRMLDFRVEYRDRNVDVVLEDSCTVGEIKQILENELQIPVPKMLLKGWKTGDVEDSTVLKSLHLPKNNSLYVLTPDLPPPSSSSHAGALQESLNQNFMLIITHREVQREYNLNFSGSSTVQEVKRNVYDLTSIPVRHQLWEGWPASATDDSMCLAESGLSYPCHRLTVGRRTSPVQTREQSEEQSTDVHMVSDSDGDDFEDASEFGVDDGEVFGMASSTLRKSPMMPENAENEGDALLQFTAEFSSRYGDCHPVFFIGSLEAAFQEAFYVKARDRKLLAIYLHHDESVLTNVFCSQMLCAESIVSYLSQNFITWAWDLTKDTNRARFLTMCNRHFGSVIAQTIRTQKTDQFPLFLIIMGKRSSNEVLNVIQGNTTVDELMMRLMAAMEIFSAQQQEDIKDEDEREARENVKREQDEAYRLSLEADRAKREAHEREMAEQFRLEQIRKEQEEEREAIRLSLEQALPPEPKEENAEPVSKLRIRTPSGEFLERRFLASNKLQIVFDFVASKGFPWDEFKLLSTFPRRDVTQLDPNKSLLEVNLFPQETLFLQAKE
Turning to B2, the binding result in test [4] is “binds”.

For the origin of these results see article PMC6131785.
